PubChem BioAssay AID504808, Drosophila RNAi Screening Center | 2011
The deposit covers about 21,000 reagents; shown is an unselected part of those that have a named target and a result. Over the whole deposit, 18 (0.084%) were called active. 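Raw counts without plate normalisation, one of two replicates; the ratio scores behind the calls were not deposited.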 Not given: the amount of reagent, the time to read-out.

- Screen: 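Chromatin factors that keep E2F targets switched off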 (primary screen)
- Cells: Drosophila S2 cells
- Reagent: long dsRNA against Drosophila genes
- Read-out: 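Firefly luciferase driven by E2F sites, normalised to Renilla luciferase on the same minimal promoter, measured by plate reader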
- Reading the numbers: E2F firefly: higher = more E2F reporter activity; Renilla normaliser: higher = more normaliser reporter signal
- Call rule: 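Called active if the normalised E2F reporter went up by over 50%; the cutoff is arbitrary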

With Cyp18a1 (Cytochrome P450 18a1) [DRSC20235], what was measured?
E2F firefly, rep 1: 1.39e5; Renilla normaliser, rep 1: 6269; outcome: inactive

With CG34342 [DRSC09756], how do the results read?
E2F firefly, rep 1: 1.00e5; Renilla normaliser, rep 1: 4094; outcome: inactive

How did the screen score eIF3d2 (eukaryotic translation initiation factor 3 subunit d2) [DRSC15651]?
E2F firefly, rep 1: 72321; Renilla normaliser, rep 1: 3392; outcome: inactive

What is on record for Cyp313a2 (Cytochrome P450 313a2) [DRSC16625]?
E2F firefly, rep 1: 1.58e5; Renilla normaliser, rep 1: 6525; outcome: inactive

For CG14223 [DRSC19580], what was measured?
E2F firefly, rep 1: 1.42e5; Renilla normaliser, rep 1: 6734; outcome: inactive

Which result is listed for Rab5 [DRSC00777]?
E2F firefly, rep 1: 87353; Renilla normaliser, rep 1: 4370; outcome: inactive

With Scgbeta (Sarcoglycan beta) [DRSC15854], what was measured?
E2F firefly, rep 1: 1.46e5; Renilla normaliser, rep 1: 6670; outcome: inactive

For Ktl (Kctd12-like) [DRSC14270], what was measured?
E2F firefly, rep 1: 63285; Renilla normaliser, rep 1: 3401; outcome: inactive

For CG15572 [DRSC18060], what does the deposit list?
E2F firefly, rep 1: 1.16e5; Renilla normaliser, rep 1: 6103; outcome: inactive

How did the screen score ph-d (polyhomeotic distal) [DRSC18819]?
E2F firefly, rep 1: 65298; Renilla normaliser, rep 1: 5199; outcome: inactive

With CG11788 [DRSC06084], what does the deposit list?
E2F firefly, rep 1: 1.37e5; Renilla normaliser, rep 1: 4828; outcome: inactive

With CG8531 [DRSC07209], what was measured?
E2F firefly, rep 1: 2932; Renilla normaliser, rep 1: 240; outcome: inactive

What did the screen give for CG12056 [DRSC17796]?
E2F firefly, rep 1: 7572; Renilla normaliser, rep 1: 864; outcome: inactive

What is on record for IKKbeta (I-kappaB kinase beta) [DRSC16714]?
E2F firefly, rep 1: 74997; Renilla normaliser, rep 1: 4004; outcome: inactive

For a6 [DRSC18733], what was measured?
E2F firefly, rep 1: 1706; Renilla normaliser, rep 1: 1044; outcome: inactive

Which result is listed for Cyt-c1L (Cytochrome c1-like) [DRSC14860]?
E2F firefly, rep 1: 1.25e5; Renilla normaliser, rep 1: 5869; outcome: inactive

Copied from above (2 entries):
CG11788 [DRSC06084]: E2F firefly, rep 1 = 1.37e5; Renilla normaliser, rep 1 = 4828; outcome = inactive
CG8531 [DRSC07209]: E2F firefly, rep 1 = 2932; Renilla normaliser, rep 1 = 240; outcome = inactive

More records:
What did the screen give for CG15219 [DRSC03715]?
E2F firefly, rep 1: 99226; Renilla normaliser, rep 1: 3978; outcome: inactive

For CG8833 [DRSC11050], how do the results read?
E2F firefly, rep 1: 78525; Renilla normaliser, rep 1: 3711; outcome: inactive

With AdamTS-A (ADAM metallopeptidase with thrombospondin type 1 motif A) [DRSC14992], how do the results read?
E2F firefly, rep 1: 80849; Renilla normaliser, rep 1: 3827; outcome: inactive

What did the screen give for AdamTS-A (ADAM metallopeptidase with thrombospondin type 1 motif A) [DRSC15966]?
E2F firefly, rep 1: 1.04e5; Renilla normaliser, rep 1: 5174; outcome: inactive

Which result is listed for CG12355 [DRSC09381]?
E2F firefly, rep 1: 44611; Renilla normaliser, rep 1: 3234; outcome: inactive

What did the screen give for CG12355 [DRSC09883]?
E2F firefly, rep 1: 1.42e5; Renilla normaliser, rep 1: 7751; outcome: inactive

What did the screen give for Spt5 [DRSC07556]?
E2F firefly, rep 1: 2.05e5; Renilla normaliser, rep 1: 5605; outcome: inactive

What is on record for HipHop (HP1-HOAP-interacting protein) [DRSC10734]?
E2F firefly, rep 1: 68534; Renilla normaliser, rep 1: 3468; outcome: inactive

For Chpf (Chondroitin polymerizing factor) [DRSC19491], what does the deposit list?
E2F firefly, rep 1: 76060; Renilla normaliser, rep 1: 5999; outcome: inactive

For Chpf (Chondroitin polymerizing factor) [DRSC19893], what does the deposit list?
E2F firefly, rep 1: 8228; Renilla normaliser, rep 1: 728; outcome: inactive

For CG14567 [DRSC11728], how do the results read?
E2F firefly, rep 1: 1.40e5; Renilla normaliser, rep 1: 6346; outcome: inactive

What did the screen give for Ir41a (Ionotropic receptor 41a) [DRSC04730]?
E2F firefly, rep 1: 1.30e5; Renilla normaliser, rep 1: 6274; outcome: inactive

With Ir41a (Ionotropic receptor 41a) [DRSC04875], what was measured?
E2F firefly, rep 1: 1.12e5; Renilla normaliser, rep 1: 4330; outcome: inactive
